Results as given in PMC11387586 (Pharmacology Research & Perspectives, 2024).
Where “and” joins values, the source holds several entries; their conditions need not be identical. Identical values can stand only once. This continues a long series; more values of the same kind are listed elsewhere.

Experiments:
[1] = Mass balance: radioactive dose recovered in urine and feces; type: in vivo, human
Summary of the method: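 8 healthy men each got one [14C]-labelled 20 mg oral capsule (about 100 μCi) with 240 mL water after a fast of at least 10 h. Urine was collected at 0–4, 4–8, 8–12 and 12–24 h, then every 24 h; feces every 24 h, homogenised in about 20:80 acetonitrile:water. Urine was counted directly by LSC; fecal homogenate was combusted first. Samples ran in duplicate. Collection continued until discharge criteria were met.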

[2] = Urinary excretion of aficamten, M1a and M1b; type: in vivo, human; details: geometric mean; aficamten as unchanged drug over 456 h post‐dose
Summary of the method: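 Urine was collected predose, at 0–4, 4–8, 8–12 and 12–24 h, then every 24 h until discharge. Isopropyl alcohol equal to 20% of void mass was added, pools were kept at 4°C, and aliquots were frozen at −20°C. Urinary excretion of parent and M1a/M1b (fe0-tlast) and renal clearance came from non-compartmental analysis, given as geometric means.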

Compound: CCc1nc(-c2ccc3c(c2)CC[C@H]3NC(=O)c2cnn(C)c2)no1 [Aficamten]
- Cumulative percent of radioactive dose recovered ([1]; feces, 0–24 h, individual subject): 0.00% (2×) and 0.0529% and 2.14% and 0.0658% and 0.0363% and 45.5% and 0.0642%
- Cumulative percent of radioactive dose recovered ([1]; feces, 0–24 h, mean): 5.98%
- Cumulative percent of radioactive dose recovered ([1]; feces, 0–48 h, individual subject): 6.81% and 3.69% and 1.09% and 3.45% and 0.0658% and 13.0% and 47.4% and 31.2%
- Cumulative percent of radioactive dose recovered ([1]; feces, 0–48 h, mean): 13.3%
- Cumulative percent of radioactive dose recovered ([1]; feces, 0–72 h, individual subject): 14.2% and 32.5% and 16.3% and 30.6% and 50.5% and 24.9% and 51.4% and 42.0%
- Cumulative percent of radioactive dose recovered ([1]; feces, 0–72 h, mean): 32.8%
- Cumulative percent of radioactive dose recovered ([1]; feces, 0–96 h, individual subject): 22.4% and 32.5% and 18.9% and 45.9% and 54.2% and 39.9% and 54.1% and 46.6%
- Cumulative percent of radioactive dose recovered ([1]; feces, 0–96 h, mean): 39.3%
- Cumulative percent of radioactive dose recovered ([1]; feces, 0–120 h, individual subject): 22.4% and 38.5% and 24.3% and 49.4% and 54.2% and 47.1% and 55.9% and 49.9%
- Cumulative percent of radioactive dose recovered ([1]; feces, 0–120 h, mean): 42.7%
- Cumulative percent of radioactive dose recovered ([1]; feces, 0–144 h, individual subject): 33.8% and 38.5% and 26.9% and 52.6% and 59.1% and 50.9% and 55.9% and 52.2%
- Cumulative percent of radioactive dose recovered ([1]; feces, 0–144 h, mean): 46.2%
- Cumulative percent of radioactive dose recovered ([1]; feces, 0–168 h, individual subject): 33.8% and 38.5% and 33.6% and 55.5% and 61.6% and 53.1% and 59.4% and 54.3%
- Cumulative percent of radioactive dose recovered ([1]; feces, 0–168 h, mean): 48.7%
- Cumulative percent of radioactive dose recovered ([1]; feces, 0–192 h, individual subject): 36.5% and 42.7% and 33.6% and 57.9% and 61.6% and 55.2% and 60.3% and 56.4%
- Cumulative percent of radioactive dose recovered ([1]; feces, 0–192 h, mean): 50.5%
- Cumulative percent of radioactive dose recovered ([1]; feces, 0–216 h, individual subject): 37.5% and 44.8% and 33.6% and 59.3% and 63.0% and 56.5% and 61.0% and 57.4%
- Cumulative percent of radioactive dose recovered ([1]; feces, 0–216 h, mean): 51.6%
- Cumulative percent of radioactive dose recovered ([1]; feces, 0–240 h, individual subject): 38.2% and 46.5% and 34.1% and 59.3% and 63.7% and 56.5% and 61.7% and 58.9%
- Cumulative percent of radioactive dose recovered ([1]; feces, 0–240 h, mean): 52.4%
- Cumulative percent of radioactive dose recovered ([1]; feces, 0–264 h, individual subject): 39.2% and 48.3% and 34.1% and 59.5% and 65.1% and 58.9% and 62.4% and 60.2%
- Cumulative percent of radioactive dose recovered ([1]; feces, 0–264 h, mean): 53.5%
- Cumulative percent of radioactive dose recovered ([1]; feces, 0–288 h, individual subject): 40.0% and 48.3% and 35.1% and 60.8% and 65.1% and 58.9% and 62.8% and 60.7%
- Cumulative percent of radioactive dose recovered ([1]; feces, 0–288 h, mean): 54.0%
- Cumulative percent of radioactive dose recovered ([1]; feces, 0–312 h, individual subject): 41.3% and 49.8% and 36.2% and 61.6% and 65.9% and 59.2% and 63.2% and 61.5%
- Cumulative percent of radioactive dose recovered ([1]; feces, 0–312 h, mean): 54.8%
- Cumulative percent of radioactive dose recovered ([1]; feces, 0–336 h, individual subject): 42.8% and 50.6% and 37.2% and 62.2% and 66.4% and 59.2% and 63.5% and 62.0%
- Cumulative percent of radioactive dose recovered ([1]; feces, 0–336 h, mean): 55.5%
- Cumulative percent of radioactive dose recovered ([1]; feces, 0–360 h, individual subject): 42.8% and 51.4% and 37.9% and 62.7% (2×) and 66.4% and 60.0% and 63.8%
- Cumulative percent of radioactive dose recovered ([1]; feces, 0–360 h, mean): 56.0%
- Cumulative percent of radioactive dose recovered ([1]; feces, 0–384 h, individual subject): 42.8% and 52.3% and 38.5% and 63.1% (2×) and 66.4% and 60.4% and 63.8%
- Cumulative percent of radioactive dose recovered ([1]; feces, 0–384 h, mean): 56.3%
- Cumulative percent of radioactive dose recovered ([1]; feces, 0–408 h, individual subject): 42.8% and 52.6% and 38.9% and 63.1% (2×) and 66.5% and 60.4% and 63.8%
- Cumulative percent of radioactive dose recovered ([1]; feces, 0–408 h, mean): 56.4%
- Cumulative percent of radioactive dose recovered ([1]; feces, 0–432 h, individual subject): 44.0% and 53.0% and 39.4% and 63.4% and 66.7% and 60.4% and 64.1% and 63.6%
- Cumulative percent of radioactive dose recovered ([1]; feces, 0–432 h, mean): 56.8%
- Cumulative percent of radioactive dose recovered ([1]; feces, 0–456 h, individual subject): 44.3% and 53.0% and 39.9% and 63.6% and 66.9% and 60.9% and 64.2% and 63.8%
- Cumulative percent of radioactive dose recovered ([1]; feces, 0–456 h, mean): 57.1%
- Cumulative percent of radioactive dose recovered ([1]; feces, 0–480 h, individual subject): 45.3% and 53.9% and 40.3% and 63.6%
- Cumulative percent of radioactive dose recovered ([1]; feces, 0–480 h, mean): 57.4%
- Cumulative percent of radioactive dose recovered ([1]; feces, 0–504 h, individual subject): 45.3% and 53.9% and 40.9% and 63.7%
- Cumulative percent of radioactive dose recovered ([1]; feces, 0–504 h, mean): 57.5%
- Cumulative percent of radioactive dose recovered ([1]; feces, 0–528 h, individual subject): 45.5% and 54.3% and 40.9% and 63.8%
- Cumulative percent of radioactive dose recovered ([1]; feces, 0–528 h, mean): 57.6%
- Cumulative percent of radioactive dose recovered ([1]; feces, 0–552 h, individual subject): 45.7% and 54.3% and 41.0% and 63.9%
- Cumulative percent of radioactive dose recovered ([1]; feces, 0–552 h, mean): 57.6%
- Cumulative percent of radioactive dose recovered ([1]; feces, 0–576 h, individual subject): 45.7% and 54.3% and 41.2% and 64.0%
- Cumulative percent of radioactive dose recovered ([1]; feces, 0–576 h, mean): 57.6%
- Cumulative percent of radioactive dose recovered ([1]; feces, 0–600 h, individual subject): 54.5% and 41.3% and 64.1%
- Cumulative percent of radioactive dose recovered ([1]; feces, 0–600 h, mean): 57.7%
- Cumulative percent of radioactive dose recovered ([1]; urine, 0–4 h, individual subject): 0.652% and 0.103% and 0.417% and 0.577% and 0.394% and 0.619% and 0.384% and 0.369%
- Cumulative percent of radioactive dose recovered ([1]; urine, 0–4 h, mean): 0.439%
- Cumulative percent of radioactive dose recovered ([1]; urine, 0–8 h, individual subject): 1.87% and 0.604% and 1.46% and 1.59% and 0.612% and 1.81% and 1.29% and 1.02%
- Cumulative percent of radioactive dose recovered ([1]; urine, 0–8 h, mean): 1.28%
- Cumulative percent of radioactive dose recovered ([1]; urine, 0–12 h, individual subject): 3.19% and 0.604% and 2.63% and 2.45% and 0.612% and 2.89% and 1.97% and 1.83%
- Cumulative percent of radioactive dose recovered ([1]; urine, 0–12 h, mean): 2.02%
- Cumulative percent of radioactive dose recovered ([1]; urine, 0–24 h, individual subject): 6.66% and 2.20% and 4.65% and 4.20% and 2.00% and 5.88% and 4.89% and 3.95%
- Cumulative percent of radioactive dose recovered ([1]; urine, 0–24 h, mean): 4.30%
- Cumulative percent of radioactive dose recovered ([1]; urine, 0–48 h, individual subject): 13.4% and 5.36% and 7.73% and 7.03% and 5.78% and 10.7% and 10.4% and 8.07%
- Cumulative percent of radioactive dose recovered ([1]; urine, 0–48 h, mean): 8.55%
- Cumulative percent of radioactive dose recovered ([1]; urine, 0–72 h, individual subject): 19.1% and 7.92% and 12.1% and 10.1% and 9.03% and 14.5% (2×) and 11.3%
- Cumulative percent of radioactive dose recovered ([1]; urine, 0–72 h, mean): 12.3%
- Cumulative percent of radioactive dose recovered ([1]; urine, 0–336 h, individual subject): 30.5% and 32.3% and 28.4%
- Cumulative percent of radioactive dose recovered ([1]; urine, 0–360 h, individual subject): 46.5% and 22.8% and 31.9% and 23.6% and 23.0% and 31.0% and 32.7% and 28.7%
- Cumulative percent of radioactive dose recovered ([1]; urine, 0–360 h, mean): 30.0%
- Cumulative percent of radioactive dose recovered ([1]; urine, 0–384 h, individual subject): 47.1% and 23.3% and 32.6% and 24.0% and 23.2% and 31.5% and 33.1% and 29.1%
- Cumulative percent of radioactive dose recovered ([1]; urine, 0–384 h, mean): 30.5%
- Cumulative percent of radioactive dose recovered ([1]; urine, 0–408 h, individual subject): 47.5% and 23.9% and 33.0% and 24.2% and 23.5% and 31.8% and 33.4% and 29.4%
- Cumulative percent of radioactive dose recovered ([1]; urine, 0–408 h, mean): 30.8%
- Cumulative percent of radioactive dose recovered ([1]; urine, 0–432 h, individual subject): 47.9% and 24.5% and 33.4% and 24.4% and 23.7% and 32.1% and 33.7% and 29.7%
- Cumulative percent of radioactive dose recovered ([1]; urine, 0–432 h, mean): 31.2%
- Cumulative percent of radioactive dose recovered ([1]; urine, 0–456 h, individual subject): 48.3% and 24.7% and 33.7% and 24.6% and 23.9% and 32.3% and 33.9% and 29.9%
- Cumulative percent of radioactive dose recovered ([1]; urine, 0–456 h, mean): 31.4%
- Cumulative percent of radioactive dose recovered ([1]; urine, 0–480 h, individual subject): 48.5% and 25.1% and 34.1% and 24.8%
- Cumulative percent of radioactive dose recovered ([1]; urine, 0–480 h, mean): 31.6%
- Cumulative percent of radioactive dose recovered ([1]; urine, 0–504 h, individual subject): 48.7% and 25.4% and 34.4% and 24.9%
- Cumulative percent of radioactive dose recovered ([1]; urine, 0–504 h, mean): 31.7%
- Cumulative percent of radioactive dose recovered ([1]; urine, 0–528 h, individual subject): 48.9% and 25.6% and 34.6% and 25.0%
- Cumulative percent of radioactive dose recovered ([1]; urine, 0–528 h, mean): 31.8%
- Cumulative percent of radioactive dose recovered ([1]; urine, 0–552 h, individual subject): 49.1% and 25.8% and 34.8% and 25.1%
- Cumulative percent of radioactive dose recovered ([1]; urine, 0–552 h, mean): 31.8%
- Cumulative percent of radioactive dose recovered ([1]; urine, 0–576 h, individual subject): 49.2% and 26.0% and 35.0% and 25.2%
- Cumulative percent of radioactive dose recovered ([1]; urine, 0–576 h, mean): 31.9%
- Cumulative percent of radioactive dose recovered ([1]; urine, 0–600 h, individual subject): 26.3% and 35.1% and 25.3%
- Cumulative percent of radioactive dose recovered ([1]; urine, 0–600 h, mean): 32.0%
- percentage of the dose administered recovered in the urine (fe0‐tlast) [2]: 0.554%
